The values that follow come from patent publication US20140107188, “USE OF HGMA-TARGETED PHOSPHOROTHIOATE DNA APTAMERS TO SUPPRESS CARCINOGENIC ACTIVITY AND INCREASE SENSITIVITY TO CHEMOTHERAPY AGENTS IN HUMAN CANCER CELLS” (Miami University, published 2014).

This series relates to HMGA1/HMGA2 (endogenous) (Homo sapiens). Briefly: activity in cells. The following applies: PS at all linkages on both strands, 0.1 ug transfection, protein in cells.

The exact form of at least one protein or probe is not confirmed.

Take “CCCACTGCAGTCGGACTCACTCGC (double strand) [Mix-sDNA]”: the functional effect of the aptamer (negative control, not significant, scale: fold change in AsPC-1 viable cells vs TC at 96 h) was -1.14.

For “CCCCGGGCCCCGGCCGGGCGCCGC (double strand) [CG-sDNA]”, the functional effect of the aptamer (negative control, scale: % decrease in AsPC-1 viability vs TC at 96 h) came out at 9.7.

“GGGAAAAAATTTTTTAAAAAACCC (double strand) [AT-sDNA]”: the functional effect of the aptamer (indirect, HMGA inhibition presumed, HMGA1 level unchanged, scale: % decrease in AsPC-1 viability vs TC at 96 h) is 30.7.
